Measurements published in publication PMC8874669.
These are yes or no findings as the source states them, for the method shown. Some binding calls cover weakened binding; strength is not graded here. Values belong to the binder of their own block, whether it stands above or below them.

What was measured:
[1] = biological target: full-length LIX1L, LexA bait (human) (UniProt Q8IVB5); assay: two-hybrid; full-length LIX1L bait in pB27 screened against a random-primed human ventricle and embryo heart cDNA library in pP6; medium lacking Trp, Leu, His with 2 mM 3-aminotriazole
[2] = biological target: T1, cytoplasmic tail of DCHS1 (amino acids 2962–3191), LexA bait (human) (UniProt Q96JQ0); assay: two-hybrid; LexA-DCHS1 (aa 2962-3191) bait screened against a random-primed human placenta cDNA library in pP6; mating of YHGX13 and L40ΔGal4; medium lacking Trp, Leu, His with 50 mM 3-aminotriazole
T1 sequence: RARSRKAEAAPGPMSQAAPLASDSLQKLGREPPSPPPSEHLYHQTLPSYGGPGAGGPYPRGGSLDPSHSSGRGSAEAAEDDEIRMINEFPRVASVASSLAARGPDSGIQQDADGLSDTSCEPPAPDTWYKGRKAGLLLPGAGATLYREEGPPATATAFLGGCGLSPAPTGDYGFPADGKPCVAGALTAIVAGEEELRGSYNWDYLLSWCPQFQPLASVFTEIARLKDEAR

binding [1]: binds
B1: DCHS1, prey clones from the human ventricle and embryo heart library (domain or fragment, UniProt Q96JQ0 3137-3189)
chain: ADGKPCVAGALTAIVAGEEELRGSYNWDYLLSWCPQFQPLASVFTEIARLKDE

binding [2]: binds
B2: Lix1-Like (LIX1L), prey clones from the human placenta library (domain or fragment, UniProt Q8IVB5 87-311)
chain: SFAKHTQGYGRVNVVEALQEFWQMKQSRGADLKNGALVVYEMVPSNSPPYVCYVTLPGGSCFGSFQFCPTKAEARRSAAKIALMNSVFNEHPSRRITDEFIEKSVSEALASFNGNREEADNPNTGIGAFRFMLESNKGKSMLEFQELMTVFQLLHWNGSLKAMRERQCSRQEVLAHYSHRALDDDIRHQMALDWVSREQSVPGALSRELASTERELDEARLAGKE

binding [1]: binds
Binder: TKWGTIEVENTTHCEFAYLRDLLIRTHMQNIKDITS (domain or fragment, UniProt Q9UHD8 518-553) [septin-9 (SEPT9), prey clones from the human ventricle and embryo heart library]
